For three molecules, binding results are on record in PMC11322666.

By UniProt entry, the sequences of proteins in these tests, tags left out. Where a name states a change or a piece, a line headed by the entry shows the natural chain unless it says otherwise. Chains listed by the source or under a name are the forms on record and can include a tag or linker. Residues count along the entry.
UniProt O75460: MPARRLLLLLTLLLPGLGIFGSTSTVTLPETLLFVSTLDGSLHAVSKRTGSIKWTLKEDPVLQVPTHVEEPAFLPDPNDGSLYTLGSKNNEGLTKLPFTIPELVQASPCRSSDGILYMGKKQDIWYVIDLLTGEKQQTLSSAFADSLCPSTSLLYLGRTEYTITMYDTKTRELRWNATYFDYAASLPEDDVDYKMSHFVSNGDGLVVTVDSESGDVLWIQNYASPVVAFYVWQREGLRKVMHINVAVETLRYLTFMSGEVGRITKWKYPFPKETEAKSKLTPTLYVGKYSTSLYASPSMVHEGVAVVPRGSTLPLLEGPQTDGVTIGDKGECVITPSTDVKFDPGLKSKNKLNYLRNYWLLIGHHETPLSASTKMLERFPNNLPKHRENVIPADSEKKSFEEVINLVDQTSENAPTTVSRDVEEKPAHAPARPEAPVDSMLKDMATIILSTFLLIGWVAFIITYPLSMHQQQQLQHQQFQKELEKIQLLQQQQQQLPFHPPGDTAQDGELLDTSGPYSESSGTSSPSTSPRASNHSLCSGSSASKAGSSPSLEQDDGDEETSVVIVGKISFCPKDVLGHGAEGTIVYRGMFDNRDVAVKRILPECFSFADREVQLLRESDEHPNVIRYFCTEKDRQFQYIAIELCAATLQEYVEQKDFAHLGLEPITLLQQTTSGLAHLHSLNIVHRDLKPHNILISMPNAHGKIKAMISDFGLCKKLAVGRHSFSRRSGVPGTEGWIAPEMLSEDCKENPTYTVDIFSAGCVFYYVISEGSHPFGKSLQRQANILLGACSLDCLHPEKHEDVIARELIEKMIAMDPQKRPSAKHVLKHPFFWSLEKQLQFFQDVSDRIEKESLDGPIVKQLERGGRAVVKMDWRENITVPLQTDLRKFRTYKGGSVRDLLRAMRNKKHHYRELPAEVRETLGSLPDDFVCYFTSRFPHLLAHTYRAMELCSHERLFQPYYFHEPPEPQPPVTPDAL
IRE1α-Flag, wild type: residues 19-977 of O75460
IRE1α^K-Flag: residues 571-832 of O75460
IRE1α^K599A, Flag tagged (O75460, form named): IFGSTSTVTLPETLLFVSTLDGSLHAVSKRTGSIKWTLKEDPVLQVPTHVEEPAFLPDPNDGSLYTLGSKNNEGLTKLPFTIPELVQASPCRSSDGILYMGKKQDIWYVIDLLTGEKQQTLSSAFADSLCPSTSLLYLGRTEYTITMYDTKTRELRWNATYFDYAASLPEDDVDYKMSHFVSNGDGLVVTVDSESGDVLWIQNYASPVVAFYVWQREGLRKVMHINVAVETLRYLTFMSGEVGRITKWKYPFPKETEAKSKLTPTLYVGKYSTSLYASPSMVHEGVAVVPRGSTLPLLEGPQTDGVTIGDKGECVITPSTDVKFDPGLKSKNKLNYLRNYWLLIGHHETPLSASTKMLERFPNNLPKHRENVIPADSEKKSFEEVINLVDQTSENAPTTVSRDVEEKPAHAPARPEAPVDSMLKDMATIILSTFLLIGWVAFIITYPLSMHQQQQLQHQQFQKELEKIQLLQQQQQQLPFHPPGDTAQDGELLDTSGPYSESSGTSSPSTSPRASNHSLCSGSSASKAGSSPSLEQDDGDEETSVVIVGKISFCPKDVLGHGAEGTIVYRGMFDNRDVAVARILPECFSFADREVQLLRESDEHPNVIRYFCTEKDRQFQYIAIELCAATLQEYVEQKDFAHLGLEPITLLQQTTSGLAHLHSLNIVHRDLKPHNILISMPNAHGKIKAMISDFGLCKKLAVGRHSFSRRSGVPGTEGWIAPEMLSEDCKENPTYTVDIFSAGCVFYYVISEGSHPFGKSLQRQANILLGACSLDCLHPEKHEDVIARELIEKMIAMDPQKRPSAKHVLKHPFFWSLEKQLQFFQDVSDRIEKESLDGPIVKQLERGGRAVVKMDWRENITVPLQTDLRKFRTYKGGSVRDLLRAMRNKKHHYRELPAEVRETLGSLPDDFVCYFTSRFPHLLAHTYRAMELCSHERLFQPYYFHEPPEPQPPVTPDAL
IRE1α^D123P, Flag tagged (O75460, form named): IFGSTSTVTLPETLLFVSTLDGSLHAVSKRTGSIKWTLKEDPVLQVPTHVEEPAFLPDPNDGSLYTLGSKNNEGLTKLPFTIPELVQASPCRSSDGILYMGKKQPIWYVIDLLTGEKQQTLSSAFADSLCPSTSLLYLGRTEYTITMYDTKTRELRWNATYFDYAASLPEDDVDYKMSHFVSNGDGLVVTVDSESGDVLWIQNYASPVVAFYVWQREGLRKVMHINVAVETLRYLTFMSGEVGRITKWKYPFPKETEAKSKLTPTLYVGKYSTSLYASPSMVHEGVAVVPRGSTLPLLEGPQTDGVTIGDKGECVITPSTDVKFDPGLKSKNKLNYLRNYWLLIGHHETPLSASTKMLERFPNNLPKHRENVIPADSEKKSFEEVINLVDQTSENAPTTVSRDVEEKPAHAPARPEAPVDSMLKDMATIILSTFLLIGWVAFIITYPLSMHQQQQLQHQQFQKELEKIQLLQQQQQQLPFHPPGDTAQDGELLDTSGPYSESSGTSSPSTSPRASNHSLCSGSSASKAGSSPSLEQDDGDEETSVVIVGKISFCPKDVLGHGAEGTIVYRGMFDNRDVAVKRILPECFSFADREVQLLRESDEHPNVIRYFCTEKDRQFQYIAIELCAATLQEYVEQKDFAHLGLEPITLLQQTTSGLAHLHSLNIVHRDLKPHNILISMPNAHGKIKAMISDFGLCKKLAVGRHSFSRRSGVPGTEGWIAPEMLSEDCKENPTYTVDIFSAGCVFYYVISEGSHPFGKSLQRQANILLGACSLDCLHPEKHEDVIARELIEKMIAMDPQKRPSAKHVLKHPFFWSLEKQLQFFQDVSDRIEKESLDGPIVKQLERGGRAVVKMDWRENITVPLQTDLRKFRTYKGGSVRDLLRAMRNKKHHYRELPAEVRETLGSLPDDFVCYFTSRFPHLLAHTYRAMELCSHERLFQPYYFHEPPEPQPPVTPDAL
IRE1α^S724A-Vn173 (O75460, form named): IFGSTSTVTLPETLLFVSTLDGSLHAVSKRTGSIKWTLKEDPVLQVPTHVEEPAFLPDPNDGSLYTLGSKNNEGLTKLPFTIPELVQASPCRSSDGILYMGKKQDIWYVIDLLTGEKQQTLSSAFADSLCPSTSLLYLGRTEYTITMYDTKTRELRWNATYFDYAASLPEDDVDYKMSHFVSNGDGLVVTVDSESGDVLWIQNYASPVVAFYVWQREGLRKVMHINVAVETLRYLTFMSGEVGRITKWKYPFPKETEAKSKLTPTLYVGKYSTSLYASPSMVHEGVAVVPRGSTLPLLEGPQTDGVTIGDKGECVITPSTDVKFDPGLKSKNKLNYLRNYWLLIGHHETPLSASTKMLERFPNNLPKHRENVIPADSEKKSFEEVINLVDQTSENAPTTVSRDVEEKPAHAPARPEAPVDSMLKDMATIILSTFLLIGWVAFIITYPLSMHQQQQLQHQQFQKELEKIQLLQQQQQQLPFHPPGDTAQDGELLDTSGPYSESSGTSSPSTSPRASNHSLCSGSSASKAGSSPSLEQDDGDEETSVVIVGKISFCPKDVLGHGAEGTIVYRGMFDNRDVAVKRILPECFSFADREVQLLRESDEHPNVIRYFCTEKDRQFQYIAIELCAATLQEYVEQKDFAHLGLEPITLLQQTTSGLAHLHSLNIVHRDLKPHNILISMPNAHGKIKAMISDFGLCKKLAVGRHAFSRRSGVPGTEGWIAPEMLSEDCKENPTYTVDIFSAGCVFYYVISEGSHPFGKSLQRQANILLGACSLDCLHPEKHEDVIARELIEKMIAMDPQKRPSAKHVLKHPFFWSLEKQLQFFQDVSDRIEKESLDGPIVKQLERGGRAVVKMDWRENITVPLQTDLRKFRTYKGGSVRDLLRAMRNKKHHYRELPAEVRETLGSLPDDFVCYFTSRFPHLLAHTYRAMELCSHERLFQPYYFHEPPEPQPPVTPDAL

Results are given in words; binding and its absence hold for the method and conditions named. In cells and extracts the contact can be indirect. Some binding calls cover weakened binding; strength is not graded here. For some assays here: Sequences can lack the tags named with a protein.

For experiment [1], the target named is inositol-requiring enzyme-1α (IRE1α), endogenous (human (endogenous in HEK293T and U2OS)) (UniProt O75460). The experiment is described as follows: co-IP; endogenous proteins, lysates of HEK293T and U2OS cells, IP with the indicated antibodies (anti-IRE1α), IgG as negative control; also with RNase A pre-treatment of lysates, in shUPF1 and shUPF2 cells, after STF-083010 or Kira6 (10 or 50 μM, 6 h), BiP overexpression, siBiP, UPF3B ….

In experiment [2] the target is IRE1α^K599A, Flag tagged (human) (UniProt O75460). The experiment can be described thus: co-IP; lysates of transfected HEK293T or U2OS cells (24 h) in NETN buffer (20 mM Tris-HCl pH 8.0, 100 mM NaCl, 1 mM EDTA, 0.5% NP-40), IP with anti-Flag (M2) magnetic beads or the indicated antibodies, western blot; Fig. 3G two-way.
Experiment [3] concerns the target IRE1α-Flag, wild type (human) (UniProt O75460). The experiment is described as above.
In experiment [4] the target is IRE1α^D123P, Flag tagged (human) (UniProt O75460). Described as above.
Experiment [5] addresses IRE1α^K-Flag (human) (UniProt O75460). Described as above.
Experiment [6] deals with IRE1α^S724A-Vn173 (human) (UniProt O75460). The experiment is described as follows: split reporter; BiFC with Venus fragments VN173 and VC155 in living U2OS cells, 24 h after transfection, confocal microscopy.
Experiment [7] has as its target IRE1α-Vn173 (human) (UniProt O75460). The description is as above.
The target of experiment [8] is IRE1α-Flag, wild type (human) (UniProt O75460). The experiment can be described thus: co-IP; UPF3B-Myc (increasing amounts; pCMV as 0 μg control), IRE1α-Flag and IRE1α-HA overexpressed in HEK293T cells, IP with anti-Flag antibodies.

B1: UPF3B, endogenous (protein, UniProt Q9BZI7 1-483)
chain: MKEEKEHRPKEKRVTLLTPAGATGSGGGTSGDSSKGEDKQDRNKEKKEALSKVVIRRLPPTLTKEQLQEHLQPMPEHDYFEFFSNDTSLYPHMYARAYINFKNQEDIILFRDRFDGYVFLDNKGQEYPAIVEFAPFQKAAKKKTKKRDTKVGTIDDDPEYRKFLESYATDNEKMTSTPETLLEEIEAKNRELIAKKTTPLLSFLKNKQRMREEKREERRRREIERKRQREEERRKWKEEEKRKRKDIEKLKKIDRIPERDKLKDEPKIKVHRFLLQAVNQKNLLKKPEKGDEKELDKREKAKKLDKENLSDERASGQSCTLPKRSDSELKDEKPKRPEDESGRDYREREREYERDQERILRERERLKRQEEERRRQKERYEKEKTFKRKEEEMKKEKDTLRDKGKKAESTESIGSSEKTEKKEEVVKRDRIRNKDRPAMQLYQPGARSRNRLCPPDDSTKSGDSAAERKQESGISHRKEGGEE
As for B1, the binding entry in experiment [1], in experiment [2], in experiment [3], in experiment [4] and in experiment [5] was “binds” each time.

B2: UPF3B-Vc155 (protein, UniProt Q9BZI7 1-483)
chain: MKEEKEHRPKEKRVTLLTPAGATGSGGGTSGDSSKGEDKQDRNKEKKEALSKVVIRRLPPTLTKEQLQEHLQPMPEHDYFEFFSNDTSLYPHMYARAYINFKNQEDIILFRDRFDGYVFLDNKGQEYPAIVEFAPFQKAAKKKTKKRDTKVGTIDDDPEYRKFLESYATDNEKMTSTPETLLEEIEAKNRELIAKKTTPLLSFLKNKQRMREEKREERRRREIERKRQREEERRKWKEEEKRKRKDIEKLKKIDRIPERDKLKDEPKIKVHRFLLQAVNQKNLLKKPEKGDEKELDKREKAKKLDKENLSDERASGQSCTLPKRSDSELKDEKPKRPEDESGRDYREREREYERDQERILRERERLKRQEEERRRQKERYEKEKTFKRKEEEMKKEKDTLRDKGKKAESTESIGSSEKTEKKEEVVKRDRIRNKDRPAMQLYQPGARSRNRLCPPDDSTKSGDSAAERKQESGISHRKEGGEE
Turning to B2, the binding result in experiment [6] and in experiment [7] was “binds” each time.

B3: UPF3B-Myc (protein, UniProt Q9BZI7 1-483)
chain: MKEEKEHRPKEKRVTLLTPAGATGSGGGTSGDSSKGEDKQDRNKEKKEALSKVVIRRLPPTLTKEQLQEHLQPMPEHDYFEFFSNDTSLYPHMYARAYINFKNQEDIILFRDRFDGYVFLDNKGQEYPAIVEFAPFQKAAKKKTKKRDTKVGTIDDDPEYRKFLESYATDNEKMTSTPETLLEEIEAKNRELIAKKTTPLLSFLKNKQRMREEKREERRRREIERKRQREEERRKWKEEEKRKRKDIEKLKKIDRIPERDKLKDEPKIKVHRFLLQAVNQKNLLKKPEKGDEKELDKREKAKKLDKENLSDERASGQSCTLPKRSDSELKDEKPKRPEDESGRDYREREREYERDQERILRERERLKRQEEERRRQKERYEKEKTFKRKEEEMKKEKDTLRDKGKKAESTESIGSSEKTEKKEEVVKRDRIRNKDRPAMQLYQPGARSRNRLCPPDDSTKSGDSAAERKQESGISHRKEGGEE
B3: in experiment [8], the binding result was “binds”.
